Results are given in words; binding and its absence hold for the method and conditions named. In cells and extracts the contact can be indirect. These calls come from enrichment with a bait or labelling near it, and not all partners need be listed.
What follows are binders tested against wild-type TRIM28 (endogenous, K562 cells) (human (endogenous in K562)) (UniProt Q13263) (assay: affinity purification with mass spectrometry; IP of endogenous TRIM28 or TRIM28-K304Q from K562 cells with anti-TRIM28-N-conjugated protein A beads; washed, eluted with the antibody-generating peptide; MS (LTQ-Orbitrap Velos, Mascot)).

The chains behind the UniProt entries cited, without tags or fusion partners.
UniProt Q13263: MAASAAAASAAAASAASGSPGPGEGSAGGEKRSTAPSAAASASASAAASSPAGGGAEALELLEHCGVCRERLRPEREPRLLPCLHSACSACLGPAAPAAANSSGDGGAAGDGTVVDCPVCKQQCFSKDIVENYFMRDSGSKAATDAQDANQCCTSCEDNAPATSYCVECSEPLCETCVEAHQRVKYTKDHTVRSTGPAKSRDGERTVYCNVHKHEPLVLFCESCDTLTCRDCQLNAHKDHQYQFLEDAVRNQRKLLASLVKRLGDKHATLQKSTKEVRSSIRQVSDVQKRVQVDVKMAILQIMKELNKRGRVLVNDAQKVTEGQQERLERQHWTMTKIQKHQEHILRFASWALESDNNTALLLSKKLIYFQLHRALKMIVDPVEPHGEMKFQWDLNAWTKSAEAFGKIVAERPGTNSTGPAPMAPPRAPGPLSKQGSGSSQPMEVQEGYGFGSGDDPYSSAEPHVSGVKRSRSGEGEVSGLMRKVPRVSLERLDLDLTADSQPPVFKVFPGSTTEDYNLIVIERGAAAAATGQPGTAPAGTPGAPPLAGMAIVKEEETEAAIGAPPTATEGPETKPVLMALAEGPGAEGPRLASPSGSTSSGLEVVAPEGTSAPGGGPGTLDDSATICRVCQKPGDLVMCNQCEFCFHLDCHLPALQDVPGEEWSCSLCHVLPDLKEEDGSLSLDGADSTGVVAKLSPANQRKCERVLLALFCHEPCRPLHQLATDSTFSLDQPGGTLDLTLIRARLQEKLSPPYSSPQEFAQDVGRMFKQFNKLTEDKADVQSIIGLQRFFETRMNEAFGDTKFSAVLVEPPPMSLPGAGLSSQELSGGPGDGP

Row | Binder | binding
1 | FBRL (protein, UniProt P22087 1-321) MKPGFSPRGGGFGGRGGFGDRGGRGGRGGFGGGRGRGGGFRGRGRGGGGGGGGGGGGGRGGGGFHSGGNRGRGRGGKRGNQSGKNVMVEPHRHEGVFICRGKEDALVTKNLVPGESVYGEKRVSISEGDDKIEYRAWNPFRSKLAAAILGGVDQIHIKPGAKVLYLGAASGTTVSHVSDIVGPDGLVYAVEFSHRSGRDLINLAKKRTNIIPVIEDARHPHKYRMLIAMVDVIFADVAQPDQTRIVALNAHTFLRNGGHFVISIKANCIDSTASAEAVFASEVKKMQQENMKPQEQLTLEPYERDHAVVVGVYRPPPKVKN | binds
2 | EDC4 (protein, UniProt Q6P2E9 1-1401) MASCASIDIEDATQHLRDILKLDRPAGGPSAESPRPSSAYNGDLNGLLVPDPLCSGDSTSANKTGLRTMPPINLQEKQVICLSGDDSSTCIGILAKEVEIVASSDSSISSKARGSNKVKIQPVAKYDWEQKYYYGNLIAVSNSFLAYAIRAANNGSAMVRVISVSTSERTLLKGFTGSVADLAFAHLNSPQLACLDEAGNLFVWRLALVNGKIQEEILVHIRQPEGTPLNHFRRIIWCPFIPEESEDCCEESSPTVALLHEDRAEVWDLDMLRSSHSTWPVDVSQIKQGFIVVKGHSTCLSEGALSPDGTVLATASHDGYVKFWQIYIEGQDEPRCLHEWKPHDGRPLSCLLFCDNHKKQDPDVPFWRFLITGADQNRELKMWCTVSWTCLQTIRFSPDIFSSVSVPPSLKVCLDLSAEYLILSDVQRKVLYVMELLQNQEEGHACFSSISEFLLTHPVLSFGIQVVSRCRLRHTEVLPAEEENDSLGADGTHGAGAMESAAGVLIKLFCVHTKALQDVQIRFQPQLNPDVVAPLPTHTAHEDFTFGESRPELGSEGLGSAAHGSQPDLRRIVELPAPADFLSLSSETKPKLMTPDAFMTPSASLQQITASPSSSSSGSSSSSSSSSSSLTAVSAMSSTSAVDPSLTRPPEELTLSPKLQLDGSLTMSSSGSLQASPRGLLPGLLPAPADKLTPKGPGQVPTATSALSLELQEVEPLGLPQASPSRTRSPDVISSASTALSQDIPEIASEALSRGFGSSAPEGLEPDSMASAASALHLLSPRPRPGPELGPQLGLDGGPGDGDRHNTPSLLEAALTQEASTPDSQVWPTAPDITRETCSTLAESPRNGLQEKHKSLAFHRPPYHLLQQRDSQDASAEQSDHDDEVASLASASGGFGTKVPAPRLPAKDWKTKGSPRTSPKLKRKSKKDDGDAAMGSRLTEHQVAEPPEDWPALIWQQQRELAELRHSQEELLQRLCTQLEGLQSTVTGHVERALETRHEQEQRRLERALAEGQQRGGQLQEQLTQQLSQALSSAVAGRLERSIRDEIKKTVPPCVSRSLEPMAGQLSNSVATKLTAVEGSMKENISKLLKSKNLTDAIARAAADTLQGPMQAAYREAFQSVVLPAFEKSCQAMFQQINDSFRLGTQEYLQQLESHMKSRKAREQEAREPVLAQLRGLVSTLQSATEQMAATVAGSVRAEVQHQLHVAVGSLQESILAQVQRIVKGEVSVALKEQQAAVTSSIMQAMRSAAGTPVPSAHLDCQAQQAHILQLLQQGHLNQAFQQALTAADLNLVLYVCETVDPAQVFGQPPCPLSQPVLLSLIQQLASDLGTRTDLKLSYLEEAVMHLDHSDPITRDHMGSVMAQVRQKLFQFLQAEPHNSLGKAARRLSLMLHGLVTPSLP | binds
3 | ZNF778 (protein, UniProt Q96MU6 1-729) MAAPDLAHGGHVSRDSVCLHEEQTQAAGMVAGWLINCYQDAVTFDDVAVDFTQEEWTLLDPSQRDLYRDVMLENYENLASVEWRLKTKGPALRQDRSWFRASNETQTARSHNGGQLCDRTQCGEAFSEHSGLSTHVRTQNTGDSCVSNHYERDFFIPCQKTLFKIGEQFSVLGQCGKAFSSTPNVVSQQACTRDRSLDYSSCGEVFLNQSYLQARAGSHNGEETWKWKPCGKALTHSMGCATPVEMHAVRNPHVCRECGKAFRYTAYLTGRVQVHPGEKPCELEECGKASPVSSSLTQHVRIHAAEKPCECKECGKAFTGLSGLSKHVQTDPGQKPYECKDCGKACGGFYLLNEHGKTHTREKPFACVVCGKYFRNSSCLNNHVRIHTGIKPYTCSYCGKAFTVRCGLTRHVRTHTGEKPYTCKDCGKAFCTSSGLTEHVRTHTGEKPYECKDCGKSFTVSSSLTEHARIHTGEKPYECKQCGKAFTGRSGLTKHMRTHTGEKPYECKDCGKAYNRVYLLNEHVKTHTEEKPFICTVCRKSFRNSSCLNKHIQIHTGIKPYECKDCGKTFTVSSSLTEHIRTHTGEKPYECKVCGKAFTTSSHLIVHIRTHTGEKPYICKECGKAFASSSHLIEHRRTHTGEKPYICNECGKAFRASSHLHKHGRIHTGQKPYKCKECGKAYNRFYLLKEHLKTYTEEQVFVCKDCGKSFKNSSCLNHHTQIHTDEKPF | binds

Second part, the binder after the results:

Row | binding | Binder
4 | binds | ZBT11 (protein, UniProt O95625 1-1053) MSSEESYRAILRYLTNEREPYAPGTEGNVKRKIRKAAACYVVRGGTLYYQRRQRHRKTFAELEVVLQPERRRDLIEAAHLGPGGTHHTRHQTWHYLSKTYWWRGILKQVKDYIKQCSKCQEKLDRSRPISDVSEMLEELGLDLESGEESNESEDDLSNFTSSPTTASKPAKKKPVSKHELVFVDTKGVVKRSSPKHCQAVLKQLNEQRLSNQFCDVTLLIEGEEYKAHKSVLSANSEYFRDLFIEKGAVSSHEAVVDLSGFCKASFLPLLEFAYTSVLSFDFCSMADVAILARHLFMSEVLEICESVHKLMEEKQLTVYKKGEVQTVASTQDLRVQNGGTAPPVASSEGTTTSLPTELGDCEIVLLVNGELPEAEQNGEVGRQPEPQVSSEAESALSSVGCIADSHPEMESVDLITKNNQTELETSNNRENNTVSNIHPKLSKENVISSSPEDSGMGNDISAEDICAEDIPKHRQKVDQPLKDQENLVASTAKTDFGPDDDTYRSRLRQRSVNEGAYIRLHKGMEKKLQKRKAVPKSAVQQVAQKLVQRGKKMKQPKRDAKENTEEASHKCGECGMVFQRRYALIMHKLKHERARDYKCPLCKKQFQYSASLRAHLIRHTRKDAPSSSSSNSTSNEASGTSSEKGRTKREFICSICGRTLPKLYSLRIHMLKHTGVKPHACQVCGKTFIYKHGLKLHQSLHQSQKQFQCELCVKSFVTKRSLQEHMSIHTGESKYLCSVCGKSFHRGSGLSKHFKKHQPKPEVRGYHCTQCEKSFFEARDLRQHMNKHLGVKPFQCQFCDKCYSWKKDWYSHVKSHSVTEPYRCNICGKEFYEKALFRRHVKKATHGKKGRAKQNLERVCEKCGRKFTQLREYRRHMNNHEGVKPFECLTCGVAWADARSLKRHVRTHTGERPYVCPVCSEAYIDARTLRKHMTKFHRDYVPCKIMLEKDTLQFHNQGTQVAHAVSILTAGMQEQESSGPQELETVVVTGETMEALEAVAATEEYPSVSTLSDQSIMQVVNYVLAQQQGQKLSEVAEAIQTVKVEVAHISGGE
5 | binds | ZCCHC4 (protein, UniProt Q9H5U6 1-513) MAASRNGFEAVEAEGSAGCRGSSGMEVVLPLDPAVPAPLCPHGPTLLFVKVTQGKEETRRFYACSACRDRKDCNFFQWEDEKLSGARLAAREAHNRRCQPPLSRTQCVERYLKFIELPLTQRKFCQTCQQLLLPDDWGQHSEHQVLGNVSITQLRRPSQLLYPLENKKTNAQYLFADRSCQFLVDLLSALGFRRVLCVGTPRLHELIKLTASGDKKSNIKSLLLDIDFRYSQFYMEDSFCHYNMFNHHFFDGKTALEVCRAFLQEDKGEGIIMVTDPPFGGLVEPLAITFKKLIAMWKEGQSQDDSHKELPIFWIFPYFFESRICQFFPSFQMLDYQVDYDNHALYKHGKTGRKQSPVRIFTNIPPNKIILPTEEGYRFCSPCQRYVSLENQHCELCNSCTSKDGRKWNHCFLCKKCVKPSWIHCSICNHCAVPDHSCEGPKHGCFICGELDHKRSTCPNIATSKRANKAVRKQKQRKSNKMKMETTKGQSMNHTSATRRKKRRERAHQYLGS
